The values that follow come from paper doi:10.1101/2022.06.15.496232.

Sequences of proteins named here, by UniProt entry; tags and fusion partners are left off. A change or cut given only in a name is not applied to a line headed by its entry. Residues count along the entry.
UniProt Q6QNK2, whole entry, looked up, stated change not applied: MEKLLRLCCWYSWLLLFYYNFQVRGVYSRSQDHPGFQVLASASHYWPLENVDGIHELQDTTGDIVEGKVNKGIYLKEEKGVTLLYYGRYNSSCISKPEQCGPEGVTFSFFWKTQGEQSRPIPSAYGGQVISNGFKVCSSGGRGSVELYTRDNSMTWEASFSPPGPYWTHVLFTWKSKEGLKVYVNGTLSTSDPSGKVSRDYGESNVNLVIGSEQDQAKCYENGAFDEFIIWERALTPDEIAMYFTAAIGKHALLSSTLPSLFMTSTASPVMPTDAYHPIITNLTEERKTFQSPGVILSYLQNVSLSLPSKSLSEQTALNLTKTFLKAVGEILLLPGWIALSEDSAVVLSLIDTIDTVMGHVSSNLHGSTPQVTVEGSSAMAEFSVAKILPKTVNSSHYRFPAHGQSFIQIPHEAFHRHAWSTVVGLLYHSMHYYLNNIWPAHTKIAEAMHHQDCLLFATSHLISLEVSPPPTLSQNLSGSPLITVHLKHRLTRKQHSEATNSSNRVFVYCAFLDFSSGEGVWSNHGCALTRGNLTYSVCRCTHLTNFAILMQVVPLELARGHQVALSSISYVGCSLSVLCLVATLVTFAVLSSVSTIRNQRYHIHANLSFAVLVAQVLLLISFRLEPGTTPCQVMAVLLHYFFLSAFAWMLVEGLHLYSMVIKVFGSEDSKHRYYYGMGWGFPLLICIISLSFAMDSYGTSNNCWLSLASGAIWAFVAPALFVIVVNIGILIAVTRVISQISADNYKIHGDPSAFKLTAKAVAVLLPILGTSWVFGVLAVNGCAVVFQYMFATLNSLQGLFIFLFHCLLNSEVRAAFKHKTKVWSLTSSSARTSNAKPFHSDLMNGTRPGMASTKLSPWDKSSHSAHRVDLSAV
UniProt Q6UX71, 31-529: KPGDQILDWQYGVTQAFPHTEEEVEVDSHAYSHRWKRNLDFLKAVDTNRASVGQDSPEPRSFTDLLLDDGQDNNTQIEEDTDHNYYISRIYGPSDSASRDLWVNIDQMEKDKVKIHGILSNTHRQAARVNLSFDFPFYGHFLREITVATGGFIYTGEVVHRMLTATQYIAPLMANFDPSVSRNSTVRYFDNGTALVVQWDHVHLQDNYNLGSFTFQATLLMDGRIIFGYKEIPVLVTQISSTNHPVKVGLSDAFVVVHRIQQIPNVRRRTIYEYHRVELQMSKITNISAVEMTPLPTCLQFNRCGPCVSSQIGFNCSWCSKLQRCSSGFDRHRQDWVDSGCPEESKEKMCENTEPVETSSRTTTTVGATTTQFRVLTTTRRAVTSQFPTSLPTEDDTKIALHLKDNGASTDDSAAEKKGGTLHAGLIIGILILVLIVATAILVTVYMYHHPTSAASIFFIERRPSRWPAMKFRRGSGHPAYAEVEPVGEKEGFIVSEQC

The target of the experiment is TwinStrep-tagged uncleavable GPR133-H543R (in HEK293T cells) (UniProt Q6QNK2). As to the kind of experiment: pull-down.

Results are given in words; binding and its absence hold for the method and conditions named. In cells and extracts the contact can be indirect.

Consider “Myc-tagged PLXDC2 (from UniProt Q6UX71 31-529)”, for which the binding result was “no binding”.
